In the experiment the target is T1, myc-tagged FKBP2 (UniProt P26885).
T1 sequence: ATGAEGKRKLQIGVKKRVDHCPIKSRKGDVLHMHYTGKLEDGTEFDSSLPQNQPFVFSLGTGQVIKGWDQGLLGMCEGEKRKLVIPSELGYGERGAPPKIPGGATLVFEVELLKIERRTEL
As to the kind of experiment: co-IP; myc-tagged FKBP2 expressed in INS-1E cells (48 h), precipitated with myc-trap beads, SDS-PAGE and Western blot; in one experiment lysates pretreated for 10 min with 100 mM 2-mercaptoethanol (more proinsulin bound). For orientation: In western blotting, separated proteins are transferred to a membrane and probed.

By UniProt entry, the sequences of proteins in these tests, tags left out. Residues count along the entry.
UniProt Q66HD0, residues 22-804: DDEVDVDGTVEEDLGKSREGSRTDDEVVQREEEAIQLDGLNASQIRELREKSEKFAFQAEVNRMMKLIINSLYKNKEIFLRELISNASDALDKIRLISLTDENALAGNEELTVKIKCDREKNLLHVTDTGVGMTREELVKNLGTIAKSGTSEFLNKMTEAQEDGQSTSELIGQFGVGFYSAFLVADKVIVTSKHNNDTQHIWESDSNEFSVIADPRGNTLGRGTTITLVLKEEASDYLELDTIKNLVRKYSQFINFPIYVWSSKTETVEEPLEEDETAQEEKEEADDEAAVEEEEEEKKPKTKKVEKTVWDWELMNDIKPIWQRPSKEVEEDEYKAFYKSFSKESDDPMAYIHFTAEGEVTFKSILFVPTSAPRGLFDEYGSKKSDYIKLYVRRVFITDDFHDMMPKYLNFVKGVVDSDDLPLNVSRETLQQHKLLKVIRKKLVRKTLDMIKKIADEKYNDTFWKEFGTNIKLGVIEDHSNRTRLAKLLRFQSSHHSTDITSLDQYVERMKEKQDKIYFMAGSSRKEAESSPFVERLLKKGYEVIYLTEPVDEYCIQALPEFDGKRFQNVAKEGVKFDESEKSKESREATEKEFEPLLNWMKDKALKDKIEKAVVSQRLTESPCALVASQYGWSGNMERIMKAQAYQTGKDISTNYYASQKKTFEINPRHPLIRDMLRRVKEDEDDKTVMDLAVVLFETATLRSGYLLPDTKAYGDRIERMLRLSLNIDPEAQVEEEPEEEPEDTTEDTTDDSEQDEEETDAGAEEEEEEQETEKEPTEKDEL

One substance from paper PMC9855983 can be followed below.

No constants are given. Whether binding was seen depends on the method and setting. In cells and extracts the contact can be indirect. Some results given as binding are weak or reduced against the parent protein; the word gives no strength. Sequences can lack the tags named with a protein.

“GRP94, endogenous in INS-1E cells (from UniProt Q66HD0 22-804)”: the binding entry was “binds”.
